Test results published in paper PMC12040169 (PLOS Biology, 2025).
The list shows a part of the results.

tested on: T1, CTL2-GFP (C. trachomatis L2/434/Bu, GFP-expressing); parameters: species or system HeLa; Intracellular C. trachomatis growth in HeLa cells, bulk GFP fluorescence relative to DMSO; details: bulk GFP, single well; 28.5 h, 10 µM; inhibitor
T1 construct: L2/434/Bu, GFP-expressing

Compound | % of control remaining [%]
CCn1cc(CN2CCCCCC2c2cc(C)on2)c(C)n1 (stereo not shown) [CBK282140] | 146.278
CCCn1c(SC(C)C(=O)N2CCOCC2)nc2ccc(Br)cc2c1=O (stereo not shown) [CBK305020] | 120.628
CC(C(=O)NCCC1=CCCCC1)N1CCOC(Cn2cccn2)C1 (stereo not shown) [CBK305319] | 119.134
O=C(c1ccc(S(=O)(=O)c2ccc(F)cc2)c([N+](=O)[O-])c1)N1CCCCCC1 [CBK294453] | 89.5223
Cc1ccn2cc(C(=O)NCCSc3nccn3C)nc2c1 [CBK281417] | 95.7187
CCC1CCc2c(sc(NC(=O)c3cnccn3)c2C(N)=O)C1 (stereo not shown) [CBK262649] | 111.866
CNS(=O)(=O)c1cccc(C(=O)N(C)Cc2ccsc2)c1 [CBK303993] | 89.8593
COc1ccccc1-c1cnc(N)c(N[C@@H](C)c2ccccc2)n1 [CBK063721] | 140.072
O=C(c1ccc2ccccc2n1)N1CCc2ccccc21 [CBK200404] | 134.879
CCc1nnc(NS(=O)(=O)c2ccc(NCc3cc(Cl)cc(Cl)c3O)cc2)s1 [CBK126494] | 101.905
Cc1ccc2cn[nH]c2c1 [CBK016109] | 88.0748
CCOc1cc(C(c2c[nH]c3ccccc23)c2c[nH]c3ccccc23)ccc1OCC(=O)O [CBK264450] | 121.26
CCc1noc(C)c1C(=O)NCCN1CC(C)CC(C)C1 (stereo not shown) [CBK282081] | 88.0769
Cc1cc(C)nc(Nc2n[nH]c(-c3cccc4ccccc34)n2)n1 [CBK266451] | 197.151
C=CCNC(=O)CN1CCC(c2ccc(OC)cc2)CC1 [CBK283560] | 91.8419
CCCC/C=C/c1ccc(Nc2ccc(N3CCOCC3)cc2)nc1 [CBK036886] | 95.5607
O=C(N[C@H]1CO[C@H]2[C@@H]1OC[C@@H]2n1cc(-c2ccccn2)nn1)c1ccc(C(F)(F)F)cc1 [CBK289507] | 99.8837
COc1ccc(C)cc1NC(=O)CN(c1ccccc1)S(=O)(=O)c1ccc(F)cc1 [CBK268223] | 94.7105
CN(C)c1ccc(-c2nccnc2NCC(O)COc2ccccc2)cc1 (stereo not shown) [CBK036928] | 129.991
C[C@]12CN(Cc3ccccc3)C[C@H]1NC(=O)c1ccccc1C2=O [CBK284703] | 139.886
COc1ccc(NCc2cc(=O)oc3cc4c(cc23)CCC4)cn1 [CBK235362] | 100
CCOC(=O)CC(C)NS(=O)(=O)c1ccc(OC(F)(F)F)cc1 (stereo not shown) [CBK044954] | 136.568

2 entries from above, with tabs.
Compound	% of control remaining [%]
CCCn1c(SC(C)C(=O)N2CCOCC2)nc2ccc(Br)cc2c1=O (stereo not shown) [CBK305020]	120.628
CC(C(=O)NCCC1=CCCCC1)N1CCOC(Cn2cccn2)C1 (stereo not shown) [CBK305319]	119.134
